Laboratory results from patent US20130074217A1 (NUTECH VENTURES, published 2013).
These are yes or no findings as the source states them, for the method shown. Binding seen in cells or lysates may run through a third protein. Some binding calls cover weakened binding; strength is not graded here. Where a sequence is shown, tags or fusion partners need not be part of it.

The chains behind the UniProt entries cited, without tags or fusion partners. Residues count along the entry.
UniProt Q9FL28, residues 24-1173: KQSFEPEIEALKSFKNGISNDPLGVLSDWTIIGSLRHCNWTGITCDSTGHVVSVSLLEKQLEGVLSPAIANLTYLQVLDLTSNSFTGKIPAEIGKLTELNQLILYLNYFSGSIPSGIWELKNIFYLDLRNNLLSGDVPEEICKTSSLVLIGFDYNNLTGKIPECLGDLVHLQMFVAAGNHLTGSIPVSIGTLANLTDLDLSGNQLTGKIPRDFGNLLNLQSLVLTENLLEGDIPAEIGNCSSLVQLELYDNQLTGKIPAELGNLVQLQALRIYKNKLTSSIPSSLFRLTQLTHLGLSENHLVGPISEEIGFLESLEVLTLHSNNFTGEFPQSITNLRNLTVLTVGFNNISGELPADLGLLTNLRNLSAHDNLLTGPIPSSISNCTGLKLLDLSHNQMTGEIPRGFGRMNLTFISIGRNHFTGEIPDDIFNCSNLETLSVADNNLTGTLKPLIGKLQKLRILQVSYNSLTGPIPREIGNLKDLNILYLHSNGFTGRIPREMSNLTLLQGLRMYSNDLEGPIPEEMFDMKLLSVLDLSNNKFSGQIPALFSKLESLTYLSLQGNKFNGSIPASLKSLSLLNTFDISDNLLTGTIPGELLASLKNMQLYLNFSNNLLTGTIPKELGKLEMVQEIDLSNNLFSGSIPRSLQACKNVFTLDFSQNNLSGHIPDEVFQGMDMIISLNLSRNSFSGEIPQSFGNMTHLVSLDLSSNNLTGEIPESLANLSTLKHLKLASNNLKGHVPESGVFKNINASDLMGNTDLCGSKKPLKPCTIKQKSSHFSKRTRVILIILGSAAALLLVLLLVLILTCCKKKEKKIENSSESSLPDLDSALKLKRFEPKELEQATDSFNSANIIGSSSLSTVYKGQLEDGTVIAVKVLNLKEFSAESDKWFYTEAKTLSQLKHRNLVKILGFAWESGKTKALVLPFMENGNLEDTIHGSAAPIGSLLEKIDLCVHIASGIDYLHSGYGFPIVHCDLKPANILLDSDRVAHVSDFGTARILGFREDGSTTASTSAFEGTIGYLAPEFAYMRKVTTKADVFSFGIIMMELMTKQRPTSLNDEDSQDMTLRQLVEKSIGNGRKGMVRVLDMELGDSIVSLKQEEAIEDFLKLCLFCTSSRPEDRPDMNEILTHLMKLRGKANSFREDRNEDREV
UniProt C0LGT6, residues 25-1031: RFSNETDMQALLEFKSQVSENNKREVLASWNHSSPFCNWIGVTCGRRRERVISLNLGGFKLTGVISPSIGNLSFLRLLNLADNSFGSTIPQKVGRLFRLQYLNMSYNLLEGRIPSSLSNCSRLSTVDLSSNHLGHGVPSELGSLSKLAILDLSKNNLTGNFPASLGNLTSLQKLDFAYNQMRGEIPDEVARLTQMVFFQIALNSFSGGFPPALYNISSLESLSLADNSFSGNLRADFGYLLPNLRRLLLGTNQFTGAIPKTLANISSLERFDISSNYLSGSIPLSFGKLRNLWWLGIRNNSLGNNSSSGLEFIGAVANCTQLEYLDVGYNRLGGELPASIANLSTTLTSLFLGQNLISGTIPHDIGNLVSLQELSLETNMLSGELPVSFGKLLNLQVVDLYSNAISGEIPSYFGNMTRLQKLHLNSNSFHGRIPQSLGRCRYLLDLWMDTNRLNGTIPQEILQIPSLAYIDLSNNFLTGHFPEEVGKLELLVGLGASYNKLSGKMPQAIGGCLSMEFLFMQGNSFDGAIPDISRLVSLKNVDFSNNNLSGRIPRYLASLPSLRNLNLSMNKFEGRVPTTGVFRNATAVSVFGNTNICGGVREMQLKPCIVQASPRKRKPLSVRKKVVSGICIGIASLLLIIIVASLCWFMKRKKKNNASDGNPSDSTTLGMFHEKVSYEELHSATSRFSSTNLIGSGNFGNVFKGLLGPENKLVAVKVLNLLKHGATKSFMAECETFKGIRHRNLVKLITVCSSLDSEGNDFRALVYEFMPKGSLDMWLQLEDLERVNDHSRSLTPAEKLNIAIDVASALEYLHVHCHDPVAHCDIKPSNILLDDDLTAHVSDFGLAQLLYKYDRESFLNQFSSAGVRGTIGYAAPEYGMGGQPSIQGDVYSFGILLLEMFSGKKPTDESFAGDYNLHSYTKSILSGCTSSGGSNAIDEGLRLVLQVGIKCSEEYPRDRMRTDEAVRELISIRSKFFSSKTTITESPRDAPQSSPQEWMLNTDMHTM

Key:
[1] = target: native FLS2 protein (Arabidopsis thaliana) (UniProt Q9FL28); assay: co-immunoprecipitation with GFP Trap beads, A. thaliana, with or without flg22 (panel D)
[2] = target: native FLS2 protein (Arabidopsis thaliana) (UniProt Q9FL28); assay: co-immunoprecipitation with GFP Trap beads from A. thaliana plants with or without HopU1-HA
[3] = target: native FLS2 protein (Arabidopsis thaliana) (UniProt Q9FL28); assay: co-immunoprecipitation with GFP Trap beads from A. thaliana GRP7-GFP plants, anti-FLS2 immunoblot, with or without 1 µM flg22
[4] = target: native FLS2 protein (Arabidopsis thaliana) (UniProt Q9FL28); assay: co-immunoprecipitation with GFP Trap beads, Col-0 and HopU1 A. thaliana plants
[5] = target: FLS2-3×myc (Arabidopsis thaliana) (UniProt Q9FL28); assay: co-immunoprecipitation with GFP Trap beads, N. benthamiana (panel B)
[6] = target: FLS2-3×myc (Arabidopsis thaliana) (UniProt Q9FL28); assay: co-immunoprecipitation with GFP Trap beads, N. benthamiana
[7] = target: EFR-3×HA (Arabidopsis thaliana) (UniProt C0LGT6); assay: as above
[8] = target: FLS2-3×myc (Arabidopsis thaliana) (UniProt Q9FL28); assay: co-immunoprecipitation with GFP Trap beads, transient co-expression in N. benthamiana
[9] = target: EFR-3×HA (Arabidopsis thaliana) (UniProt C0LGT6); assay: as above

Measured: binding

B1: GRP7-GFP (protein, not shown: large carriers)
chain: MASGDVEYRCFVGGLAWATDDRALETAFAQYGDVIDSKIINDRETGRSRGFGFVTFKDEKAMKDAIEGMNGQDLDGRSITVNEAQSRGSGGGGGHRGGGGGGYRSGGGGGYSGGGGSYGGGGGRREGGGGYSGGGGGYSSRGGGGGSYGGGRREGGGGYGGGEGGGYGGSGGGGGW
binds: [1] | [2] | [3] | [4]

B2: GRP7-eGFP (other)
chain: MASGDVEYRCFVGGLAWATDDRALETAFAQYGDVIDSKIINDRETGRSRGFGFVTFKDEKAMKDAIEGMNGQDLDGRSITVNEAQSRGSGGGGGHRGGGGGGYRSGGGGGYSGGGGSYGGGGGRREGGGGYSGGGGGYSSRGGGGGSYGGGRREGGGGYGGGEGGGYGGSGGGGGW
notes: Transiently expressed in N. benthamiana under the 35S promoter; also called 35S::GRP7-eGFP; not shown: C-terminal enhanced green fluorescent protein (eGFP) tag
binds: [5] | [6] | [7] | [8] | [9]
